According to the supplement of paper PMC12823440, “Inhibitors supercharge kinase turnover through native proteolytic circuits” (Nature, 2025):
Counter-ions that a name gives are not always drawn. Some of the results follow. Hit calls seldom repeat between salt and free forms of one compound.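 Kinases were expressed as nanoluciferase fusions in K562 cells and luminescence was read every 4 h between 2 and 18 h as percent of control, DMSO set to 100% and a positive control to 0%. A time point counts as decreased when the signal drops significantly (2 sigma). The hit call is the authors' own, does not follow from the count of time points alone, and its rule is not shown.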

Amino acid sequences for entries named in this document (tags omitted). A change or cut given only in a name is not applied to a line headed by its entry.
UniProt Q06187: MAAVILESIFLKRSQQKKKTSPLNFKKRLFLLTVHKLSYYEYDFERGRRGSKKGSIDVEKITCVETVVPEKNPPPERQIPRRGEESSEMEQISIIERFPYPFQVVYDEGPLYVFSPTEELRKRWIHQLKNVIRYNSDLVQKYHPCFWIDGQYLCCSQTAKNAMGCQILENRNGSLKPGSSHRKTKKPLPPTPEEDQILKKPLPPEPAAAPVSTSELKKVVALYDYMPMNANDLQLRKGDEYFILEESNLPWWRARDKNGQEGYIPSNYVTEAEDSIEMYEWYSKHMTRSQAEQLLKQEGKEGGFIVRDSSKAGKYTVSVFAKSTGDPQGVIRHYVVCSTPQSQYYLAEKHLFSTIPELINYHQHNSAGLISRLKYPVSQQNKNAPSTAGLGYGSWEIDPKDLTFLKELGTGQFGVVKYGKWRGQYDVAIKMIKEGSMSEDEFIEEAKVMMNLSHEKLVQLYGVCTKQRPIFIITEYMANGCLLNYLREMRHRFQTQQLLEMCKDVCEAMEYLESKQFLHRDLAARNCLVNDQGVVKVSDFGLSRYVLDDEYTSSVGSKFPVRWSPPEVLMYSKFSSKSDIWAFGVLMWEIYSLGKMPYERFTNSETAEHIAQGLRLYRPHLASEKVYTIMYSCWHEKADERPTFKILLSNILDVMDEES
UniProt Q9UQM7, whole entry: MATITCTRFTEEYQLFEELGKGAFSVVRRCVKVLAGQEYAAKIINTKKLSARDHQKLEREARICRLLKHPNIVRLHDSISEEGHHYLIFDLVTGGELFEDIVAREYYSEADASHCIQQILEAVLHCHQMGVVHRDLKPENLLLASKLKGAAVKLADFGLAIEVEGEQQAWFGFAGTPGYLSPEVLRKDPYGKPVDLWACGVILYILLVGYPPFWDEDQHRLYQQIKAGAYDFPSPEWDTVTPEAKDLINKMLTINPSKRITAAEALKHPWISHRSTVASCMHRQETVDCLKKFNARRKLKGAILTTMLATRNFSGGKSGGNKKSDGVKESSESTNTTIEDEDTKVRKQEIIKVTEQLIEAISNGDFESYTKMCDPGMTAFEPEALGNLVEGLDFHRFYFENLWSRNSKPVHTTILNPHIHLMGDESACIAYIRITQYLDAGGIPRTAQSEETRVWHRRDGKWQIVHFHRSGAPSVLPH
UniProt Q15131: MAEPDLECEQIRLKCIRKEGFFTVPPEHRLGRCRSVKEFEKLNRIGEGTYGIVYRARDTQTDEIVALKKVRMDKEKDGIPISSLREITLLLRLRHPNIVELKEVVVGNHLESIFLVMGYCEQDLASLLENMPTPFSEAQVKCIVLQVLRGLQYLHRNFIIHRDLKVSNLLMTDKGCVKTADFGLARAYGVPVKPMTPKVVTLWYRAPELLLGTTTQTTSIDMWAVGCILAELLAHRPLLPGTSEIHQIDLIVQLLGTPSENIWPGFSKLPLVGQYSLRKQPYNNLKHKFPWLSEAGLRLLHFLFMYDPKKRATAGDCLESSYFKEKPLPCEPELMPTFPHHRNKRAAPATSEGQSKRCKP
UniProt Q00526: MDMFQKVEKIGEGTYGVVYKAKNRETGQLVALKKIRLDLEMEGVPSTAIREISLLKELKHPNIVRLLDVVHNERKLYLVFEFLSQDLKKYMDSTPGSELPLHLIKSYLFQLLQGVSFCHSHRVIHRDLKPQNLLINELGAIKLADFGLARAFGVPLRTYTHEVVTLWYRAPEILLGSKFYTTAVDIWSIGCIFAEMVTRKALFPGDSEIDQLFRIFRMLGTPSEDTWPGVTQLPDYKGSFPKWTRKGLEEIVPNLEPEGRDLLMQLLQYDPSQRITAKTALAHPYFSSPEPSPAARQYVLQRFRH
UniProt P11802: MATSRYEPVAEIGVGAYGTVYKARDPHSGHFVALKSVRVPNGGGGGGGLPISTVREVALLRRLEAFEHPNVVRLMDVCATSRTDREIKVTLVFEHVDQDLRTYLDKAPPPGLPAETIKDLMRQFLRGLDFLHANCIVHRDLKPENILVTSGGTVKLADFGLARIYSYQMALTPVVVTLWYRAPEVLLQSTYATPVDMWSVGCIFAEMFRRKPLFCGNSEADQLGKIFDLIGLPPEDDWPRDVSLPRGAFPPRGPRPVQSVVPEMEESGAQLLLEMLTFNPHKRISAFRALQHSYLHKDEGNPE
UniProt Q00534, whole entry: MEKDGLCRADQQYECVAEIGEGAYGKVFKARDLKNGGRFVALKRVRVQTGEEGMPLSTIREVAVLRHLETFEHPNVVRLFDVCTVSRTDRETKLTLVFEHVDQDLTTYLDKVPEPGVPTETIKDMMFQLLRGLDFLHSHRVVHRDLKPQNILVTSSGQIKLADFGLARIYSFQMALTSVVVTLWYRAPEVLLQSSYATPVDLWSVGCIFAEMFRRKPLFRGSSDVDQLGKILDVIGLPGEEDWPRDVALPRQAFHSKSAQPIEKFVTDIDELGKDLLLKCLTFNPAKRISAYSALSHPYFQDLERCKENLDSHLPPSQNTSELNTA
UniProt P50613: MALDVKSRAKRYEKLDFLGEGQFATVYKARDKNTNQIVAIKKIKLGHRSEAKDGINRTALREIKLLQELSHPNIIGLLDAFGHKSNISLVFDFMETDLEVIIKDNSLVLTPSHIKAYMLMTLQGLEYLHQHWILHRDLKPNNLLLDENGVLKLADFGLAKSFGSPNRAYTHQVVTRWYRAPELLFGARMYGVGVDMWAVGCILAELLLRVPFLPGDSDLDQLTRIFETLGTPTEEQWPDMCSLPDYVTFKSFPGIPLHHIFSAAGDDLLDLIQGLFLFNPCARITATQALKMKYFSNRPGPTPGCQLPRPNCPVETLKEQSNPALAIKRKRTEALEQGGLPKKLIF
UniProt P50750, whole entry: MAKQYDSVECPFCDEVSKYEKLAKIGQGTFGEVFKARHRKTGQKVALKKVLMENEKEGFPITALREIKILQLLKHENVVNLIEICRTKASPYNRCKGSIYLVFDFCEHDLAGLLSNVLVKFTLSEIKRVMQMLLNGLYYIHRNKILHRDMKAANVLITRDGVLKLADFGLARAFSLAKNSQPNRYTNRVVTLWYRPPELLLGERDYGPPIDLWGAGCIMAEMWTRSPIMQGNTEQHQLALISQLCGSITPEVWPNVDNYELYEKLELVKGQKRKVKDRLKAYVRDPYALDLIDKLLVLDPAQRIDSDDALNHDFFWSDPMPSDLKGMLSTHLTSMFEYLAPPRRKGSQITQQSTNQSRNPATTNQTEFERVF
UniProt P07333, whole entry: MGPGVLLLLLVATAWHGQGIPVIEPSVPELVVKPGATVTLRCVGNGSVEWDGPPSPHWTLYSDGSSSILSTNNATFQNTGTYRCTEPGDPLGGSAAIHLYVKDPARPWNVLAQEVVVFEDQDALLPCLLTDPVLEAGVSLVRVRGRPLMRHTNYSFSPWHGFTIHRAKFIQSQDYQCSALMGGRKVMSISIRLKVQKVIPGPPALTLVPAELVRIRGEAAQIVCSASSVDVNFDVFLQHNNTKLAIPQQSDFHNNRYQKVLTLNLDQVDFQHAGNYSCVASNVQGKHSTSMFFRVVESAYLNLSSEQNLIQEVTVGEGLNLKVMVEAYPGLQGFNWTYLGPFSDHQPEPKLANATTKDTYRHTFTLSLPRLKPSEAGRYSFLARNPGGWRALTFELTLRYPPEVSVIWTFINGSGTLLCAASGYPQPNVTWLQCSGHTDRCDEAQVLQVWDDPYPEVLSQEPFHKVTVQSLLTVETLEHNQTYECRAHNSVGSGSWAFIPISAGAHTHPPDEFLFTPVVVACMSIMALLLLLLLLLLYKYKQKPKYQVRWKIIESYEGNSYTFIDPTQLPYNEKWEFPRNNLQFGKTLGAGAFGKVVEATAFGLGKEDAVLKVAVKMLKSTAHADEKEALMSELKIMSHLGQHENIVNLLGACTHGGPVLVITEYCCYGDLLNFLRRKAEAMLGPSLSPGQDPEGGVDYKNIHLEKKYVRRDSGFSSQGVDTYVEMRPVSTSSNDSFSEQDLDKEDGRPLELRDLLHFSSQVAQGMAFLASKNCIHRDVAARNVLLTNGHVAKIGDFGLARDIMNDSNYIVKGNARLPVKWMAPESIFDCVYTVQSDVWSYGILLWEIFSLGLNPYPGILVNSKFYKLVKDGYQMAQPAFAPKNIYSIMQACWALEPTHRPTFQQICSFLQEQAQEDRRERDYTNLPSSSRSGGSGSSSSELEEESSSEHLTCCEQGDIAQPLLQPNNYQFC
UniProt P48729: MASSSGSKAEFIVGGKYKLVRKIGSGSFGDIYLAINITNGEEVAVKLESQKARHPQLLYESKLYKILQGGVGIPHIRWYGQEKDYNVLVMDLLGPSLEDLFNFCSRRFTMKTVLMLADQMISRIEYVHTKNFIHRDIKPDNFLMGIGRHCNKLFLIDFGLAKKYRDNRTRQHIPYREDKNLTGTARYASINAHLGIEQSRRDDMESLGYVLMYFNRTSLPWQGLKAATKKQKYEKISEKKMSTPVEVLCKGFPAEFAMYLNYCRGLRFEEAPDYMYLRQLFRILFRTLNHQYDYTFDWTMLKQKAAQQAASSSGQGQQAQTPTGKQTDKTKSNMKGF
UniProt P48730: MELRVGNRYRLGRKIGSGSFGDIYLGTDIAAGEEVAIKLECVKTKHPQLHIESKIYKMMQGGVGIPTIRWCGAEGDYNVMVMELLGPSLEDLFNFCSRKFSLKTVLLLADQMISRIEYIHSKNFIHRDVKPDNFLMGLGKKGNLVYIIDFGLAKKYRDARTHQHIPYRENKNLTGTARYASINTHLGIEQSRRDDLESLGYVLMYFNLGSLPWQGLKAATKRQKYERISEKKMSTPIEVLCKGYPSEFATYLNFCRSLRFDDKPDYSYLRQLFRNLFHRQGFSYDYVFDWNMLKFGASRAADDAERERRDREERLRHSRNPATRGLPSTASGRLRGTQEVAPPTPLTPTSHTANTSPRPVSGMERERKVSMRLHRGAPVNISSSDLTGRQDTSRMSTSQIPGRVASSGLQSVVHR
UniProt Q08345: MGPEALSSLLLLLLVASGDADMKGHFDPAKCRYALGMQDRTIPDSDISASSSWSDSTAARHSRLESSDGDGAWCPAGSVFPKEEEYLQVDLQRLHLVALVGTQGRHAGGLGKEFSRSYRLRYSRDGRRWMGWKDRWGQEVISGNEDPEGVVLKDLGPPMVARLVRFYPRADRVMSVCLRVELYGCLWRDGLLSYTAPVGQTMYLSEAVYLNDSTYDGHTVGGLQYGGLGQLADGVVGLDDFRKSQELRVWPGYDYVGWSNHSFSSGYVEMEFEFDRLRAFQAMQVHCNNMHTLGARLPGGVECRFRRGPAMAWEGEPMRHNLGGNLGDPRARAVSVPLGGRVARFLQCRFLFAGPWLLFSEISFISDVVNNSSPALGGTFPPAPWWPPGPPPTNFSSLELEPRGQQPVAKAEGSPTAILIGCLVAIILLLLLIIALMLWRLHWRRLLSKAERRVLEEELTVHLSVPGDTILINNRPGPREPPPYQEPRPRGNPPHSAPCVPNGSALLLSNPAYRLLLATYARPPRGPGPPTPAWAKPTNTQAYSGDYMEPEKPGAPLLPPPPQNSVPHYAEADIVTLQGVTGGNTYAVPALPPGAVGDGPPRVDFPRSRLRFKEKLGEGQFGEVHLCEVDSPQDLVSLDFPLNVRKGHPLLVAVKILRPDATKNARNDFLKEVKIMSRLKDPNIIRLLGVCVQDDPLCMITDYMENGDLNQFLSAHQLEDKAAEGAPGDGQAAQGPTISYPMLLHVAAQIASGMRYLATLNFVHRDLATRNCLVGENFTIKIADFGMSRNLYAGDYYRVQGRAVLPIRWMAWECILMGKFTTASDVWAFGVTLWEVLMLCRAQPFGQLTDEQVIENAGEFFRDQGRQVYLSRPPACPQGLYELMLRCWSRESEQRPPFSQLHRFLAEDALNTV
UniProt Q92630: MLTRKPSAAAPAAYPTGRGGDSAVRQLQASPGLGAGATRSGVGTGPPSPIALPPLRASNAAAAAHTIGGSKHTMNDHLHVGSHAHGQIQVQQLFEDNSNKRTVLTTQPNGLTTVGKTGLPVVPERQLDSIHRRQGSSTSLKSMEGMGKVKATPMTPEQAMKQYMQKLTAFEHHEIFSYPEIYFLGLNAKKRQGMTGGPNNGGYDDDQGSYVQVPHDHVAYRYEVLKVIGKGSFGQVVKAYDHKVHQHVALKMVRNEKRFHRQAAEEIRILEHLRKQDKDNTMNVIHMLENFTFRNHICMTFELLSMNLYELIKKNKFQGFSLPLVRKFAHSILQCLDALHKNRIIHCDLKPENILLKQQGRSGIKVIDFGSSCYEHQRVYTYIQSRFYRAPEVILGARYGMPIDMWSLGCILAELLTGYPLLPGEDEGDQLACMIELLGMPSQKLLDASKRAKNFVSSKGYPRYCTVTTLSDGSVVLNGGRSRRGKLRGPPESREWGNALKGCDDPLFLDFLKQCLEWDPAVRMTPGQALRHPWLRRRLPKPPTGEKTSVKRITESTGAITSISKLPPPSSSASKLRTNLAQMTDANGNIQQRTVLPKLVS

How the values were obtained:
Experiment in all cases: kinase-Nluc reporter destabilization hit call (1 = scored as downregulated) (binary); higher = compound decreases kinase abundance
Settings in all cases: K562; 2-18 h
BRAF_V600E = tested on: BRAF_V600E
BTK = BTK (UniProt Q06187)
CAMK2A = CAMK2A (UniProt Q9UQM7)
CAMK2G = CAMK2G (UniProt Q13555)
CDK10 = CDK10 (UniProt Q15131)
CDK2 = CDK2 (UniProt P24941)
CDK3 = CDK3 (UniProt Q00526)
CDK4 = CDK4 (UniProt P11802)
CDK5 = CDK5 (UniProt Q00535)
CDK6 = CDK6 (UniProt Q00534)
CDK7 = CDK7 (UniProt P50613)
CDK9 = CDK9 (UniProt P50750)
CHEK2 = CHEK2 (UniProt O96017)
CSF1R = CSF1R (UniProt P07333)
CSK = CSK (UniProt P41240)
CSNK1A1 = CSNK1A1 (UniProt P48729)
CSNK1D = CSNK1D (UniProt P48730)
DDR1 = DDR1 (UniProt Q08345)
DYRK1B = DYRK1B (UniProt Q9Y463)
DYRK2 = DYRK2 (UniProt Q92630)

Measured: kinase-Nluc reporter destabilization hit call

O=c1cc(-c2cccc3c2Sc2ccccc2S3)oc(N2CCOCC2)c1 (10 µM)
inactive: BRAF_V600E 0 | BTK 0 | CAMK2A 0 | CAMK2G 0 | CDK10 = 0 | CDK2 = 0 | CDK3 = 0 | CDK4 = 0 | CDK5 = 0 | CDK6 = 0 | CDK7 = 0 | CDK9 = 0 | CHEK2 = 0 | CSF1R 0 | CSK 0 | CSNK1A1 = 0 | CSNK1D 0 | DDR1 = 0 | DYRK1B 0 | DYRK2 = 0

Nc1nc(N)c2nc(-c3cccc(O)c3)cnc2n1 (10 µM)
inactive: BRAF_V600E 0 | BTK 0 | CAMK2A 0 | CAMK2G 0 | CDK10 = 0 | CDK2 = 0 | CDK3 = 0 | CDK4 = 0 | CDK5 = 0 | CDK6 = 0 | CDK7 = 0 | CDK9 = 0 | CHEK2 = 0 | CSF1R 0 | CSK 0 | CSNK1A1 = 0 | CSNK1D 0 | DDR1 = 0 | DYRK1B 0 | DYRK2 = 0

C=C[C@@](C)(/C=C/c1ccc(O)cc1)CCC=C(C)C [Bakuchiol] (10 µM)
inactive: BRAF_V600E 0 | BTK 0 | CAMK2A 0 | CAMK2G 0 | CDK10 = 0 | CDK2 = 0 | CDK3 = 0 | CDK4 = 0 | CDK5 = 0 | CDK6 = 0 | CDK7 = 0 | CDK9 = 0 | CHEK2 = 0 | CSF1R 0 | CSK 0 | CSNK1A1 = 0 | CSNK1D 0 | DDR1 = 0 | DYRK1B 0 | DYRK2 = 0

CNc1nc(Nc2cn(C(C)(C)C#N)nc2C)ncc1C(F)(F)F (10 µM)
inactive: BRAF_V600E 0 | BTK 0 | CAMK2A 0 | CAMK2G 0 | CDK10 = 0 | CDK2 = 0 | CDK3 = 0 | CDK4 = 0 | CDK5 = 0 | CDK6 = 0 | CDK7 = 0 | CDK9 = 0 | CHEK2 = 0 | CSF1R 0 | CSK 0 | CSNK1A1 = 0 | CSNK1D 0 | DDR1 = 0 | DYRK1B 0 | DYRK2 = 0

c1ccc(-c2nc(=NCCN3CCOCC3)sn2-c2ccccc2)cc1 [VP3.15 (dihydrobromide)] (10 µM)
inactive: BRAF_V600E 0 | BTK 0 | CAMK2A 0 | CAMK2G 0 | CDK10 = 0 | CDK2 = 0 | CDK3 = 0 | CDK4 = 0 | CDK5 = 0 | CDK6 = 0 | CDK7 = 0 | CDK9 = 0 | CHEK2 = 0 | CSF1R 0 | CSK 0 | CSNK1A1 = 0 | CSNK1D 0 | DDR1 = 0 | DYRK1B 0 | DYRK2 = 0

C[C@@H]1CN(c2cc(-c3n[nH]c4ccc(OC5(C)CC5)cc34)ncn2)C[C@H](C)O1 (10 µM)
inactive: BRAF_V600E 0 | BTK 0 | CAMK2A 0 | CAMK2G 0 | CDK10 = 0 | CDK2 = 0 | CDK3 = 0 | CDK4 = 0 | CDK5 = 0 | CDK6 = 0 | CDK7 = 0 | CDK9 = 0 | CHEK2 = 0 | CSF1R 0 | CSK 0 | CSNK1A1 = 0 | CSNK1D 0 | DDR1 = 0 | DYRK1B 0 | DYRK2 = 0

Cc1ccn2c(C(=O)C(=O)c3ccccc3)c(-c3ccccc3)nc2c1 (10 µM)
inactive: BRAF_V600E 0 | BTK 0 | CAMK2A 0 | CAMK2G 0 | CDK10 = 0 | CDK2 = 0 | CDK3 = 0 | CDK4 = 0 | CDK5 = 0 | CDK6 = 0 | CDK7 = 0 | CDK9 = 0 | CHEK2 = 0 | CSF1R 0 | CSK 0 | CSNK1A1 = 0 | CSNK1D 0 | DDR1 = 0 | DYRK1B 0 | DYRK2 = 0

O=C(NC1CCOCC1)c1ccc(-c2cc(-c3c[nH]nc3-c3ccccn3)ccn2)cc1 (10 µM)
inactive: BRAF_V600E 0 | BTK 0 | CAMK2A 0 | CAMK2G 0 | CDK10 = 0 | CDK2 = 0 | CDK3 = 0 | CDK4 = 0 | CDK5 = 0 | CDK6 = 0 | CDK7 = 0 | CDK9 = 0 | CHEK2 = 0 | CSF1R 0 | CSK 0 | CSNK1A1 = 0 | CSNK1D 0 | DDR1 = 0 | DYRK1B 0 | DYRK2 = 0

CN1C(=O)[C@@H](NC(=O)c2n[nH]c(Cc3ccccc3)n2)COc2ccccc21 (10 µM)
inactive: BRAF_V600E 0 | BTK 0 | CAMK2A 0 | CAMK2G 0 | CDK10 = 0 | CDK2 = 0 | CDK3 = 0 | CDK4 = 0 | CDK5 = 0 | CDK6 = 0 | CDK7 = 0 | CDK9 = 0 | CHEK2 = 0 | CSF1R 0 | CSK 0 | CSNK1A1 = 0 | CSNK1D 0 | DDR1 = 0 | DYRK1B 0 | DYRK2 = 0

CCN(CC)c1ccc2cc(-c3nc4cc(C)ccc4o3)c(=O)oc2c1 (10 µM)
inactive: BRAF_V600E 0 | BTK 0 | CAMK2A 0 | CAMK2G 0 | CDK10 = 0 | CDK2 = 0 | CDK3 = 0 | CDK4 = 0 | CDK5 = 0 | CDK6 = 0 | CDK7 = 0 | CDK9 = 0 | CHEK2 = 0 | CSF1R 0 | CSK 0 | CSNK1A1 = 0 | CSNK1D 0 | DDR1 = 0 | DYRK1B 0 | DYRK2 = 0

CCn1c(=O)c(-c2cc[nH]n2)cc2c(C)nc(N)nc21 [Voxtalisib] (10 µM)
inactive: BRAF_V600E 0 | BTK 0 | CAMK2A 0 | CAMK2G 0 | CDK10 = 0 | CDK2 = 0 | CDK3 = 0 | CDK4 = 0 | CDK5 = 0 | CDK6 = 0 | CDK7 = 0 | CDK9 = 0 | CHEK2 = 0 | CSF1R 0 | CSK 0 | CSNK1A1 = 0 | CSNK1D 0 | DDR1 = 0 | DYRK1B 0 | DYRK2 = 0

Cc1ccc(C(=O)Nc2sc(Nc3ccccc3)nc2C(N)=O)cc1 (10 µM)
inactive: BRAF_V600E 0 | BTK 0 | CAMK2A 0 | CAMK2G 0 | CDK10 = 0 | CDK2 = 0 | CDK3 = 0 | CDK4 = 0 | CDK5 = 0 | CDK6 = 0 | CDK7 = 0 | CDK9 = 0 | CHEK2 = 0 | CSF1R 0 | CSK 0 | CSNK1A1 = 0 | CSNK1D 0 | DDR1 = 0 | DYRK1B 0 | DYRK2 = 0

COc1cc2ncnc(-n3nc(-c4ccccn4)nc3N)c2cc1OC (10 µM)
inactive: BRAF_V600E 0 | BTK 0 | CAMK2A 0 | CAMK2G 0 | CDK10 = 0 | CDK2 = 0 | CDK3 = 0 | CDK4 = 0 | CDK5 = 0 | CDK6 = 0 | CDK7 = 0 | CDK9 = 0 | CHEK2 = 0 | CSF1R 0 | CSK 0 | CSNK1A1 = 0 | CSNK1D 0 | DDR1 = 0 | DYRK1B 0 | DYRK2 = 0

For reference, 2 of the compounds above:
CCN(CC)c1ccc2cc(-c3nc4cc(C)ccc4o3)c(=O)oc2c1 (10 µM)
inactive: BRAF_V600E 0 | BTK 0 | CAMK2A 0 | CAMK2G 0 | CDK10 = 0 | CDK2 = 0 | CDK3 = 0 | CDK4 = 0 | CDK5 = 0 | CDK6 = 0 | CDK7 = 0 | CDK9 = 0 | CHEK2 = 0 | CSF1R 0 | CSK 0 | CSNK1A1 = 0 | CSNK1D 0 | DDR1 = 0 | DYRK1B 0 | DYRK2 = 0

CCn1c(=O)c(-c2cc[nH]n2)cc2c(C)nc(N)nc21 [Voxtalisib] (10 µM)
inactive: BRAF_V600E 0 | BTK 0 | CAMK2A 0 | CAMK2G 0 | CDK10 = 0 | CDK2 = 0 | CDK3 = 0 | CDK4 = 0 | CDK5 = 0 | CDK6 = 0 | CDK7 = 0 | CDK9 = 0 | CHEK2 = 0 | CSF1R 0 | CSK 0 | CSNK1A1 = 0 | CSNK1D 0 | DDR1 = 0 | DYRK1B 0 | DYRK2 = 0

(list continues)

CC(C)(C)n1nc(Cc2ccccc2O)c2c(N)ncnc21 (10 µM)
inactive: BRAF_V600E 0 | BTK 0 | CAMK2A 0 | CAMK2G 0 | CDK10 = 0 | CDK2 = 0 | CDK3 = 0 | CDK4 = 0 | CDK5 = 0 | CDK6 = 0 | CDK7 = 0 | CDK9 = 0 | CHEK2 = 0 | CSF1R 0 | CSK 0 | CSNK1A1 = 0 | CSNK1D 0 | DDR1 = 0 | DYRK1B 0 | DYRK2 = 0

Cn1cc2cc(C(F)(F)c3nnc4ccc(-c5cnn(C6CC6)c5)nn34)c(F)cc2n1 [Bozitinib] (10 µM)
inactive: BRAF_V600E 0 | BTK 0 | CAMK2A 0 | CAMK2G 0 | CDK10 = 0 | CDK2 = 0 | CDK3 = 0 | CDK4 = 0 | CDK5 = 0 | CDK6 = 0 | CDK7 = 0 | CDK9 = 0 | CHEK2 = 0 | CSF1R 0 | CSK 0 | CSNK1A1 = 0 | CSNK1D 0 | DDR1 = 0 | DYRK1B 0 | DYRK2 = 0

O=C(N[C@@H](C1CC1)C(F)(F)F)c1cc(-c2cnn3cc(-c4ccc(F)cc4)cnc23)cs1 (10 µM)
inactive: BRAF_V600E 0 | BTK 0 | CAMK2A 0 | CAMK2G 0 | CDK10 = 0 | CDK2 = 0 | CDK3 = 0 | CDK4 = 0 | CDK5 = 0 | CDK6 = 0 | CDK7 = 0 | CDK9 = 0 | CHEK2 = 0 | CSF1R 0 | CSK 0 | CSNK1A1 = 0 | CSNK1D 0 | DDR1 = 0 | DYRK1B 0 | DYRK2 = 0

COc1ncccc1-c1cnn2ccc(N3CCN(C(=O)OC(C)C)CC3)nc12 (10 µM)
inactive: BRAF_V600E 0 | BTK 0 | CAMK2A 0 | CAMK2G 0 | CDK10 = 0 | CDK2 = 0 | CDK3 = 0 | CDK4 = 0 | CDK5 = 0 | CDK6 = 0 | CDK7 = 0 | CDK9 = 0 | CHEK2 = 0 | CSF1R 0 | CSK 0 | CSNK1A1 = 0 | CSNK1D 0 | DDR1 = 0 | DYRK1B 0 | DYRK2 = 0
